PubChem BioAssay AID2417 (National Center for Advancing Translational Sciences (NCATS), 2010)
In all, about 140,000 compounds went through this assay and about 4,300 (3.1%) were called active. The shares of active, inactive and inconclusive entries below differ from those in the screen.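 How the source made its calls: active means readout at or below -70, meaning at least 70% loss of cells showing the perinucleolar compartment, a nuclear body marking cancer cells; inconclusive means readout between -30 and a set limit; inactive means the rest.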

Test: High Content Assay for Compounds that inhibit the Assembly of the Perinucleolar Compartment;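 further: plate controls were DMSO wells for no effect and camptothecin positive control wells for full effect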
Details: PC3M PTB-GFP, PNC prevalence imaging, 16 h; at 10 µM; active compounds read low
Description: High Content Assay for Compounds that inhibit the Assembly of the Perinucleolar Compartment NIH Chemical Genomics Center [NCGC] NIH Molecular Libraries Probe Centers Network [MLPCN] MLPCN Grant: MH082371-01A2 Assay Submitter (PI): Sui Huang, Northwestern University, Feinberg School of Medicine, Cell and Molecular Biology, Chicago, Illinois. The perinucleolar compartment (PNC) is a non-membrane-bound nuclear subdomain that is associated with but structurally distinct from the nucleolus. The PNC is a heritable trait, in which the number of PNCs per cell in daughter cells often mimics that of their mother cells. The PNC is heterogeneous in shape, is stable through interphase, disassembles during mitosis, and reassembles in early G1. The PNC is concentrated with newly synthesized RNA polymerase III (pol III) RNAs (MRP RNA, RNAse P H1 RNA, hY RNAs[hY1, 2, 5], Alu RNA, and SRP [7SL] RNA) and RNA binding proteins (nucleolin, PTB, CUG-BP, KSRP, Raver1, Raver2, and Rod). […] Extensive in vitro studies have shown that the PNC is unique to tumor cells and preferentially forms in tumor cells derived from solid tissues. Examination of cancer cell lines from various origins and malignant capacities has shown that PNC prevalence correlates with the malignancy of tumors and has the potential to be developed as a pan-cancer prognostic marker. […] Although the PNC is associated with a DNA locus and a handful of components have been identified, much remains to be investigated regarding the structure and function of the PNC and its mechanistic link to cancer. We have previously shown that PNC prevalence reduction is a valid strategy to identify compounds that can be used to study the structure and function of the PNC. It is necessary, however, to create a screening platform that is able to test a large number of compounds in an automated fashion. Here we report the development and robustness of an automated whole-cell phenotypic image-based screening assay that is capable of identifying such compounds.
PNC High Content Imaging Assay Procedure: 1. Cells at a density of 75-90% confluency in T175 flasks were harvested using 7 ml TrypLE Express cell dissociation reagent. After dissociation (5 minutes room temperature incubation) 10 ml of complete media was added to the TrypLE/cell suspension. The liquid was transferred to a 50 ml Conical tube and cells were pelleted at 1000 RPM for 5 min. Supernatant was removed and cells were resuspended to a final density of 150-200 cells/ul in complete media. 2. Cells were plated in 5 ul volume (750-1000 cells/well) into 1536 well Black uclear Aurora Low Base plates and allowed to recover and adhere at 37 C in a humidified 5% CO2 incubator for 4 hours. 3. After 4 hour incubation, compound libraries (23 nl of […] in columns 5-48) were transferred to the plates in duplicate using a 1536 well pintool. Camptothecin positive control (59 uM final) was added to column 2 and 1:3 dilutions of camptothecin was added to column 3. DMSO negative controls were present in columns 1 and 4. 4. After a 16 hour incubation in the 37 C incubator, cells were fixed by the addition of 4 ul of 6% EM grade paraformaldehyde (containing 0.1% triton X 100) directly to the cells. The plates were incubated at room temperature for 20 minutes. The liquid was removed using a 32 channel Kalypsys aspirator and the fixed cells were washed twice with 5 ul PBS followed by a final addition of 5 ul PBS containing 1 ug/ml Hoechst 33342. 5. Fixed plates were sealed and sotred at 4C until imaged. 6. Plates were imaged on an InCell 1000 automated microscope using a 20 x objective, a standard FITC filter set, no camera binning, and an exposure time of ~100-150 msec/well. 7. Data analysis. PNC prevalence was determined using the Multitarget analysis module from InCell Workstation software (V3.5 ) and analysis was run on a quad core workstation using the Incell Developer Toolbox (V1.7). […]

SMILES	activity change (PNC), negative = inhibition
CC(=O)c1ccc(Oc2cc(C)nc(N3CCOCC3)n2)cc1	inconclusive: -45.8%
O=C(CSc1nc2ccccc2s1)N1c2ccccc2Sc2ccccc21	inconclusive: -40.2%
CS(=O)(=O)N(CC(=O)N1CCOCC1)c1ccc2c3c(cccc13)CC2	inconclusive: -62.5%
CCOC(=O)c1[nH]c2ccc(C)cc2c1N	inconclusive: -43.2%
Cc1ccc(OCC(=O)Nc2ccccc2Sc2ccccc2)c([N+](=O)[O-])n1	active: -107%
Cc1c(C2C(C#N)=C(N)N(c3ccccc3C#N)C3=C2C(=O)CCC3)cnn1C (centres undefined)	inactive: 9.33%
COc1ccc(C2=[N+]([O-])C(C)(C)N(O)C2(C)C)cc1	inconclusive: -38.7%
CCCCOc1ccc(-c2nnn(CC(=O)NCc3ccco3)n2)cc1	inactive: 17.8%
CC(=O)N1CCN(c2ccc(NC(=O)c3ccc(N4CCCC4)c([N+](=O)[O-])c3)cc2Cl)CC1	inconclusive: -58.4%
O=C1OCCC1N1C(=O)c2ccccc2S1(=O)=O (centres undefined)	inactive: 41.4%
Cc1onc(-c2ccccc2Cl)c1C(=O)N1CCN(c2cccc(Cl)c2)CC1	inconclusive: -64.3%
CCOc1ccc(OCC(=O)OCn2c(SC)nnc(C)c2=O)cc1	inconclusive: -45.6%
CCOC(=O)NC(NC(=S)Nc1ccccc1OC)C(Cl)(Cl)Cl (centres undefined)	inactive: -19.2%
CC(C)(C)c1nc2ccccc2[nH]1	inconclusive: -54.8%
CN1CCN(c2nc(-c3cccnc3)nc3ccccc23)CC1	inconclusive: -31.8%
Cn1c(CNC(=O)c2cccs2)n[nH]c1=S	inconclusive: -55.5%
CCCCCn1ccc(=N)cc1	active: -84%
Cc1cc(-c2nc3ccccc3o2)c2ccccc2n1	inconclusive: -46.2%
Cc1ccc(Nc2nc(C3CC3)cs2)cc1	active: -119%
O=C(c1ccncc1)N1CCN(C(=O)c2ccco2)CC1	inactive: -3.69%
CCOC(=O)c1cnc2ccc(C)cc2c1Nc1ccc(N2CCOCC2)cc1	inactive: -19.6%
CCOC(=O)C1=C(N)n2c(s/c(=C/c3ccco3)c2=O)=C(C(=O)OC)C1c1ccco1 (centres undefined)	inconclusive: -31.8%
Cc1cc(OCC(=O)N[C@@H](Cc2ccccc2)c2nc3ccccc3[nH]2)ccc1Cl	inconclusive: -71.4%
Brc1ccccc1C1=Nn2c(nnc2-c2ccccc2)SC1	inactive: -6.83%

In the list so far, these contain an NH in an aromatic ring.
SMILES	activity change (PNC), negative = inhibition
CCOC(=O)c1[nH]c2ccc(C)cc2c1N	inconclusive: -43.2%
CC(C)(C)c1nc2ccccc2[nH]1	inconclusive: -54.8%
Cn1c(CNC(=O)c2cccs2)n[nH]c1=S	inconclusive: -55.5%
Cc1cc(OCC(=O)N[C@@H](Cc2ccccc2)c2nc3ccccc3[nH]2)ccc1Cl	inconclusive: -71.4%

Continuation.

SMILES	activity change (PNC), negative = inhibition
COCCOc1nc2c(c(=O)n(C)c(=O)n2C)n1Cc1cccc(OC)c1	inactive: -27.5%
CN(C(=O)CCN1C(=O)C(C)(C)Nc2ccccc21)c1ccccc1	inconclusive: -37%
COCC(O)CNc1ccccc1 (centres undefined)	inactive: -3%
CCOC(=O)/C(=N/Nc1ccccc1)Sc1nnc(CCc2ccccc2)n1-c1ccccc1	active: -134%
COc1ccc(OCC(=O)Nc2cc3oc4ccccc4c3cc2OC)cc1	inconclusive: -34.8%
O=C(c1ccc(Cl)cc1)c1oc2ccccc2c1CS(=O)(=O)c1ccccc1	inconclusive: -42.9%
CC(=O)Nc1ccc(N=Cc2ccc[nH]2)cc1	inconclusive: -59.5%
COc1ccccc1CNC(=O)c1oc2ccc(S(=O)(=O)N3CCCC3)cc2c1C	inconclusive: -38.8%
O=C(c1ccccc1)c1ccc(CN2C(=O)c3ccccc3C2=O)o1	inconclusive: -44.6%
CC(C)(C)c1nc(CN2CCOCC2)ccc1O	inconclusive: -71.7%
Cc1nn(C)c(C)c1S(=O)(=O)NCc1cccs1	inconclusive: -42.2%
O=C(CSCc1cnn(-c2ccccc2)c1-n1cccc1)NCCN1CCOCC1	inconclusive: -30.2%
CCOC(=O)N1CCN(C(=O)CSCc2nc(-c3ccccc3C)oc2C)CC1	inactive: -28.7%
CC(=O)Nc1ccc(NS(=O)(=O)C(F)(F)F)cc1	inconclusive: -73.7%
COc1ccc(NCc2nnc(SCC(=O)Nc3cc(C)cc(C)c3)o2)cc1	inactive: 24.6%
O=C(CSc1nnc2scc(-c3ccccc3)n12)NCC1CCCO1 (centres undefined)	inconclusive: -74.3%
C/C(=N\NC(=O)c1ccc(N(C)C)cc1)c1ccc(C)c(C)c1	inactive: -10.7%
CCOc1ccccc1N/C=C(\C#N)c1nc2ccccc2n1C	inconclusive: -62.3%
OC1(c2cccnc2)CCN(Cc2nnnn2C2CCCCC2)CC1	inconclusive: -41%
Cc1ccc(NC(=O)CSc2nc(C)c(C)c(C)n2)c([N+](=O)[O-])c1	inactive: -26.2%
CCCCn1c(NC(=O)C2CCCCC2)nc2ccccc21	inconclusive: -33.7%
O=C(CCC1(C(=O)O)CCC(=O)NC1)NCc1ccccc1 (centres undefined)	inconclusive: -40%
O=C(Nc1ccccc1)c1n[nH]c(Cn2cncn2)n1	inconclusive: -75.8%
Cc1cc(=O)oc2cc(OCC(=O)Nc3cccc(S(=O)(=O)N(C)C)c3)ccc12	inactive: 3.74%

SMILES	activity change (PNC), negative = inhibition
CC1CCN(c2ccccc2NC(=O)c2ccc(N3CCOCC3)c([N+](=O)[O-])c2)CC1	inconclusive: -64.2%
CCOC(=O)Cn1c(=O)oc2cc(S(=O)(=O)NCCCc3ccccc3)ccc21	inconclusive: -36.8%
CCN(CC)C(=O)CSc1nc2ccccc2c(=O)n1-c1cccc(OC)c1	inactive: -8.97%
O=C(c1cccs1)N1CCC(Cc2ccccc2)CC1	inconclusive: -53.5%
O=C(Cc1cccc2ccccc12)Nc1ccc(OC(F)F)c(Cl)c1	inactive: 26%
Cc1ccc(-c2cc(=O)[nH][nH]2)c(C)c1	inconclusive: -47.2%
CC(=O)N(CCC(c1ccccc1)c1ccco1)Cc1cccs1 (centres undefined)	inactive: -7.07%
CC1(c2ccccc2)NC(=S)N2C1NC(=S)N2c1ccccc1 (centres undefined)	inconclusive: -45.4%
CCn1cc(C(=O)N2CCCC2)c(=O)c2cc(S(=O)(=O)N3CCOCC3)ccc21	inactive: 18.3%
COc1ccccc1-c1nc(-c2ccc(C)nc2OC)no1	active: -97.7%
Cc1cc(NS(=O)(=O)c2ccccc2)no1	inconclusive: -30.9%
COCCCNC(=S)NNC(=O)c1csc2ccccc12	inconclusive: -68.4%
COc1cc(OC)cc(-c2nc3cc(C)ccc3o2)c1	active: -117%
Cc1ccc(C2C(C#N)=C(N)Oc3nc(-c4ccccc4)[nH]c32)o1 (centres undefined)	inactive: -1.06%
O=C(N/N=C/c1cccs1)c1ccc2c(c1)OCO2	inactive: 42.5%
O=C(O)C1C2C=CC(C2)C1C(=O)N1CCOCC1 (centres undefined)	inconclusive: -62%
CC1=C/C(=C/N(C)c2ccccc2)C(=O)S1	inactive: -23.9%
CCOC(=O)CCc1c(C)nc(SCCCn2c(=O)[nH]c3ccccc32)c(C#N)c1C	inactive: 32.3%
CCOC(=O)c1c(C)oc2c1c(C(c1cccnc1)N1CCCCC1)c(O)c1ccccc12 (centres undefined)	inconclusive: -62.8%
CCCC12CN(C(=O)c3ccc(OC)cc3)CC(C)(CN(C(=O)c3ccc(OC)cc3)C1)C2=O	inconclusive: -74.1%
O=C(NNC(=S)NCc1ccco1)c1ccc(Cl)s1	inactive: 7.26%
CCC(Sc1nc2ccccc2c(=O)n1CCN1CCOCC1)C(=O)NCc1cccnc1 (centres undefined)	inconclusive: -51.5%
CC1Cc2ccccc2N1C(=O)CSc1ccccc1 (centres undefined)	inactive: 32.6%
O=C(NC(NC(=S)Nc1c(Cl)cccc1Cl)C(Cl)(Cl)Cl)OCc1ccccc1 (centres undefined)	inconclusive: -35.5%

SMILES	activity change (PNC), negative = inhibition
COc1ccc(S(=O)(=O)NCC(=O)N(CC(=O)NCC2CCCO2)c2ccccc2C)cc1 (centres undefined)	inconclusive: -57.8%
O=C(O)C1C2CCC(O2)C1C(=O)NCc1ccc(Cl)cc1 (centres undefined)	inactive: 18.6%
COc1ccc(C(=O)CCNc2cccc(Cl)c2)cc1	inactive: -15.6%
CSc1cccc(NC(=O)C2CCN(C(=O)c3ccccc3C)CC2)c1	inactive: -10.1%
COC(=O)Cc1[nH]n(-c2nc3ccccc3s2)c(=O)c1C(C)=O	inactive: -18.6%
O=S(=O)(Nc1ccc(N=Nc2ccc(O)c3ccccc23)cc1)c1ccccc1	inconclusive: -58.7%
O=[N+]([O-])c1cc(C(F)(F)F)cc([N+](=O)[O-])c1NN=C1CCCCC1	inactive: -2.7%
Cc1sc(NC(=O)c2ccco2)nc1-c1ccccc1	inconclusive: -40.8%
CCc1ccc(C(=O)NCc2cccs2)s1	inconclusive: -56.5%
Cc1c(N=Cc2cccs2)c(=O)n(-c2ccccc2)n1C	inactive: 7.16%
CN1CCN(S(=O)(=O)c2ccc(-c3ccc(Cl)cc3)cc2)CC1	inconclusive: -69.3%
CC1(C)CC(=O)C=C(Nc2ccccc2F)C1	inconclusive: -52.5%
Cn1cnnc1SCC(=O)c1ccc2c(c1)CCCC2	inactive: 16.8%
Cc1ccccc1NC(=O)Cn1c(O)c(N=NC(=O)c2ccccc2O)c2ccccc21	inactive: 13.9%
Clc1ccc(-c2nnsc2SCc2ccccc2)cc1	inconclusive: -34.5%
O=C(Nc1cccc(Cl)c1)OCCN1CCN(Cc2ccccc2)CCC1=O	inconclusive: -79.2%
N=C1C(c2nc3ccccc3s2)=C(O)CN1Cc1ccco1	inactive: 12.2%
CCCCCc1nc2c(=O)n(C)c3ccccc3c2o1	inconclusive: -49.3%
Cc1ccc(S(=O)(=O)NCc2ccc3c(c2)cc(C)n3C)cc1	inconclusive: -55.8%
CN(C)c1nc(-c2ccccc2)c2cnn(Cc3ccccc3)c2n1	inconclusive: -50.9%
CC(C)c1ccc(-c2c(C#N)c(N)nc(SCC(=O)N3CCCCCC3)c2C#N)cc1	inconclusive: -40.3%
CCOc1cccc2c1OC1(C)CC2NC(=O)N1c1ccc(OC)cc1 (centres undefined)	active: -82.2%
